Experimental data from PMC7317005.
Results are given in words; binding and its absence hold for the method and conditions named. Binding seen in cells or lysates may run through a third protein. Some binding calls cover weakened binding; strength is not graded here.

By UniProt entry, the sequences of proteins in these tests, tags left out.
UniProt P37238: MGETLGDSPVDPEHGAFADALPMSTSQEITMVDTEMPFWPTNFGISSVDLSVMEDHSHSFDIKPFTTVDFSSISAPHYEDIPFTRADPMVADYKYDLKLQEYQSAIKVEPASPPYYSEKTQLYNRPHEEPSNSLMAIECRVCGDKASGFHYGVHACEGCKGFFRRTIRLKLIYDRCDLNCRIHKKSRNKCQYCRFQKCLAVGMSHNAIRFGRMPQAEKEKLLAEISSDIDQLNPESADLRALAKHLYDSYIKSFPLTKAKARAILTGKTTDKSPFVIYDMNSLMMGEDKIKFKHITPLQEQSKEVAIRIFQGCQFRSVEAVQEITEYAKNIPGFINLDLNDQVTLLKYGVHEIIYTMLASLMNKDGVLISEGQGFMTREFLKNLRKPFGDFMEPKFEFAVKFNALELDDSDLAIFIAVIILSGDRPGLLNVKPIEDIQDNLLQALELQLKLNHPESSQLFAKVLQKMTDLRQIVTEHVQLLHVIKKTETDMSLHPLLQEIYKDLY

Molecular target: peroxisome proliferator-activated receptor γ (mouse (endogenous in splenic B cells)) (UniProt P37238)
Assay: co-IP; whole-cell extracts of mouse B cells; IP with anti-PPARγ overnight at 4°C, protein A-Sepharose, IB with anti-p-STAT6; IP buffer 50 mM Tris-HCl pH 7.5, 150 mM NaCl, 1 mM EDTA, 0.5% NP-40; rabbit IgG as control antibody

B1: phosphorylated signal transducer and activator of transcription 6 (protein, UniProt P52633 1-837)
chain: MSLWGLISKMSPEKLQRLYVDFPQRLRHLLADWLESQPWEFLVGSDAFCYNMASALLSATVQRLQATAGEQGKGNSILPHISTLESIYQRDPLKLVATIRQILQGEKKAVIEEFRHLPGPFHRKQEELKFTTALGRLQHRVRETRLLRESLQQGAKTGQVSLQNLIDPPVNGPGPSEDLATMLQGTVGDLEATQALVLKRIQIWKRQQQLAGNGTPFEESLAGLQERCESLVEIYSQLQQEIGAASGELEPKTRASLISRLDEVLRTLVTSSFLVEKQPPQVLKTQTKFQAGVRFLLGLQFLGTSAKPPMVRADMVTEKQARELSLAQGPGTGVESTGEIMNNTVPLENSIPSNCCSALFKNLLLKKIKRCERKGTESVTEEKCAVLFSTSFTLGPNKLLIQLQALSLPLVVIVHGNQDNNAKATILWDNAFSEMDRVPFVVAERVPWEKMCETLNLKFMAEVGTSRGLLPEHFLFLAQKIFNDNSLSVEAFQHRCVSWSQFNKEILLGRGFTFWQWFDGVLDLTKRCLRSYWSDRLIIGFISKQYVTSLLLNEPDGTFLLRFSDSEIGGITIAHVIRGQDGSSQIENIQPFSAKDLSIRSLGDRIRDLAQLKNLYPKKPKDEAFRSHYKPEQMGKDGRGYVSTTIKMTVERDQPLPTPEPQMPAMVPPYDLGMAPDASMQLSSDMGYPPQSIHSFQSLEESMSVLPSFQEPHLQMPPNMSQITMPFDQPHPQGLLQCQSQEHAVSSPEPMLCSDVTMVEDSCLTQPVGGFPQGTWVSEDMYPPLMPPTEQDLTKLLLENQGEAGGSLGSQPLLQPSPYGQSGISLSHLDLRTNPSW
modifications: phosphotyrosine at 641 (detected with antibody to Phospho-STAT6 (Tyr641))
Question: B1 was tested. Which binding did it give?
Answer: binds
